Drawing on PubChem BioAssay AID330 (DTP/NCI, 2004), this text covers T/C and survivor count for 23 compounds.

For this assay, the system named is P388 leukemia ip, CD2F1 mice, survival T/C. As to the kind of experiment: NCI In Vivo Anticancer Drug Screen. Data for tumor model P388 Leukemia (intraperitoneal) in CD2F1 (CDF1) mice. The note with it: T/C endpoint: median survival time, higher T/C = longer survival.
Where [1] appears, read: dose: 200.0 mg/kg/injection, schedule: Q01DX009 (ip), vehicle: Klucel (hydroxypropylcellulose) (HPC).
Setting [2] is: dose: 400.0 mg/kg/injection, schedule: Q01DX009 (ip), vehicle: Klucel (hydroxypropylcellulose) (HPC).
The mark [3] stands for this setting: dose: 100.0 mg/kg/injection, schedule: Q01DX009 (ip), vehicle: saline with Tween-80.
The mark [4] stands for this setting: dose: 200.0 mg/kg/injection, schedule: Q01DX009 (ip), vehicle: saline with Tween-80.
[5] abbreviates: dose: 100.0 mg/kg/injection, schedule: Q01DX009 (ip), vehicle: Klucel (hydroxypropylcellulose) (HPC).
[6] abbreviates: dose: 240.0 mg/kg/injection, schedule: Q01DX005 (ip), vehicle: saline with Tween-80.

The structures appear in SMILES notation. The list does not hold the whole screen: it gathers tests that were run many times, whatever their T/C, doses with no T/C, and many T/C values between a quarter and a half above the control. Other doses and runs of a compound stand elsewhere. T/C is the treated group as % of the vehicle group. Some entries give survivors of the animals treated and no T/C: the source holds a T/C of zero for them, seemingly a mark for toxic or unscored doses. Some doses without a T/C left all or most animals alive at the check, yet need not have been tolerated: survival well below the control is almost never listed, so the zero probably covers shortened survival too. Counts of survivors are from the toxicity check (mostly the fifth day) where no day follows; animals may have died later. Schedule codes are those of the source, read here as Q, the interval in days (D) or hours (H), X, the number of doses. Some structures stand for samples that the source files as different forms (salt, stereo form or complex); doses refer to the form tested. Some entries were tested several times; their values stand side by side, smallest first. Marks such as (2×) say how often a value occurs here. For survival time, the PubChem record calls one and a half times the control and up active, and a quarter to a half above the control has no call in these data; cut-offs in other NCI protocols can differ.

In the case of `COc1ccc2c(c1)/C(=C/CCN(C)C)c1ccccc1S2`, the T/C is, setting by setting: (dose: 33.0 mg/kg/injection, schedule: Q04DX003 (ip), vehicle: saline) 130 % of control; (dose: 50.0 mg/kg/injection, schedule: Q04DX003 (ip), vehicle: saline) 127 and 130 % of control. For the same compound, where the note is “dose: 75.0 mg/kg/injection, schedule: Q04DX003 (ip), vehicle: saline”, the survivor count is 5 of 6.

Take `COC(=O)Nc1nc2ccc(SC)cc2c(=O)[nH]1`: the T/C under setting [1] is 144 and 149 % of control. Besides, the survivor count under setting [2] was 0 of 6.

Regarding `CSc1nc(C)c(Br)c(Sc2nc(N)nc3nc[nH]c23)n1`, the T/C is, setting by setting: (dose: 25.0 mg/kg/injection, schedule: Q01DX009 (ip), vehicle: saline with Tween-80) 130 % of control; (dose: 66.0 mg/kg/injection, schedule: Q04DX003 (ip), vehicle: saline with Tween-80) 136 % of control; (dose: 100.0 mg/kg/injection, schedule: Q04DX003 (ip), vehicle: saline with Tween-80) 127 and 145 % of control; (dose: 150.0 mg/kg/injection, schedule: Q04DX003 (ip), vehicle: saline with Tween-80) 127 % of control. Besides, the survivor count was 6 of 6 under setting [3]; 6 of 6 under setting [4]; 5 of 6 (dose: 400.0 mg/kg/injection, schedule: Q04DX003 (ip), vehicle: saline with Tween-80).

As to `COc1ccc(CC2=CC(=O)C(C)=CC2=O)cc1`, the survivor count is listed as 3 of 6 (dose: 50.0 mg/kg/injection, schedule: Q01DX005 (ip), vehicle: saline with Tween-80); 0 of 6 (dose: 100.0 mg/kg/injection, schedule: Q01DX005 (ip), vehicle: saline with Tween-80); 0 of 6 (dose: 200.0 mg/kg/injection, schedule: Q01DX005 (ip), vehicle: saline with Tween-80).

`CN=C(c1ccc(NC(=O)c2cc(C(=O)Nc3ccc(C(=NC)N(C)C)cc3)cc([N+](=O)[O-])c2)cc1)N(C)C`: the survivor count by setting is: (dose: 25.0 mg/kg/injection, schedule: Q01DX005 (ip), vehicle: saline) 0 of 6; (dose: 50.0 mg/kg/injection, schedule: Q01DX005 (ip), vehicle: saline) 0 of 6; (dose: 100.0 mg/kg/injection, schedule: Q01DX005 (ip), vehicle: saline) 0 of 6; (dose: 200.0 mg/kg/injection, schedule: Q01DX005 (ip), vehicle: saline) 0 of 6.

Turning to `CC(C)(C)NC(=O)OCc1c(COC(=O)NC(C)(C)C)c(-c2ccc(Cl)c(Cl)c2)n2c1CCC2`, the T/C by setting is: (dose: 12.5 mg/kg/injection, schedule: Q01DX009 (ip), vehicle: distilled water + Tween-80) 133 % of control; (dose: 25.0 mg/kg/injection, schedule: Q01DX009 (ip), vehicle: distilled water + Tween-80, evaluated on day 30) 138 % of control; (dose: 25.0 mg/kg/injection, schedule: Q01DX009 (ip), vehicle: distilled water + Tween-80, evaluated on day 45) 146 % of control; (dose: 200.0 mg/kg/injection, schedule: Q01DX009 (ip), vehicle: distilled water + Tween-80) 144 % of control.

Regarding `S=C(C(=S)N1CCOCC1)N1CCOCC1`, under setting [5], the T/C was 144 % of control.

Consider `Cc1ccc(S(=O)(=O)OCCN(CCOS(=O)(=O)c2ccc(C)cc2)c2ccc(F)cc2)cc1`, for which the T/C (dose: 2.5 mg/kg/injection, schedule: Q01DX009 (ip), vehicle: other) is 131 % of control.

`CCOC(=O)Nc1ccc(SCC2COC(Cn3ccnc3)(c3ccc(Cl)cc3Cl)O2)cc1` (stereo unspecified): the T/C (dose: 60.0 mg/kg/injection, schedule: Q01DX005 (ip), vehicle: saline with Tween-80) was 143 % of control. The survivor count is recorded as 0 of 6 (dose: 100.0 mg/kg/injection, schedule: Q01DX001 (ip), vehicle: saline); 6 of 6 (dose: 120.0 mg/kg/injection, schedule: Q01DX005 (ip), vehicle: saline with Tween-80); 0 of 6 (dose: 200.0 mg/kg/injection, schedule: Q01DX001 (ip), vehicle: saline); 4 of 6 under setting [6]; 0 of 6 (dose: 400.0 mg/kg/injection, schedule: Q01DX001 (ip), vehicle: saline).

Take `O/C(=C/c1ncnc2ccccc12)c1cccc(Cl)c1`: the survivor count under setting [6] was 6 of 6.

As to `FC(F)(F)S.[Ag]`, the survivor count by setting is: (dose: 50.0 mg/kg/injection, schedule: Q01DX009 (ip), vehicle: saline with Tween-80) 2 of 6; under setting [3], 0 of 6.

`CCN(CC)CCCNC(c1ccc(OC)c(OC)c1)C(Cl)(Cl)Cl` (stereo unspecified): the survivor count (dose: 240.0 mg/kg/injection, schedule: Q01DX005 (ip), vehicle: saline) was 1 of 6.

For `C[n+]1c(-c2cccc(OCCCCCCCCCCOc3cccc(-c4c5cc(N)ccc5c5ccc(N)cc5[n+]4C)c3)c2)c2cc(N)ccc2c2ccc(N)cc21`, the T/C is, setting by setting: (dose: 0.19 mg/kg/injection, schedule: Q01DX005 (ip), vehicle: water) 141 % of control; (dose: 0.19 mg/kg/injection, schedule: Q01DX009 (ip), vehicle: water) 141 % of control; (dose: 0.38 mg/kg/injection, schedule: Q01DX009 (ip), vehicle: water) 133 % of control; (dose: 0.39 mg/kg/injection, schedule: Q01DX005 (ip), vehicle: water) 144 % of control; (dose: 0.39 mg/kg/injection, schedule: Q01DX009 (ip), vehicle: water) 139 % of control; (dose: 0.75 mg/kg/injection, schedule: Q01DX009 (ip), vehicle: water) 142 % of control. For the same compound, the T/C (dose: 1.5 mg/kg/injection, schedule: Q01DX009 (ip), vehicle: water) was 142 % of control and the T/C (dose: 1.56 mg/kg/injection, schedule: Q01DX005 (ip), vehicle: water) is 141 % of control. Further, the survivor count runs as follows: (dose: 3.12 mg/kg/injection, schedule: Q01DX005 (ip), vehicle: water) 6 of 6; (dose: 6.25 mg/kg/injection, schedule: Q01DX005 (ip), vehicle: water) 5 of 6; (dose: 12.5 mg/kg/injection, schedule: Q01DX005 (ip), vehicle: water) 0 of 6; (dose: 12.5 mg/kg/injection, schedule: Q01DX009 (ip), vehicle: water) 3 of 6.

Take `COC(=O)c1cc2c(s1)C(=O)c1ccccc1-2`: the survivor count (dose: 400.0 mg/kg/injection, schedule: Q01DX009 (ip), vehicle: saline with Tween-80) is 6 of 6.

For `CC(C)(C)N(C/C=C/CN(Cc1ccccc1)Cc1ccccc1)C(C)(C)C`, the survivor count under setting [4] is given as 4 of 6.

Consider `CCCCCCCCCCC[N+]1([O-])CCOCC1`, for which the survivor count is given as 5 of 6 (dose: 100.0 mg/kg/injection, schedule: Q01DX009 (ip), vehicle: saline) and 0 of 6 (dose: 200.0 mg/kg/injection, schedule: Q01DX009 (ip), vehicle: saline).

With `CC1(C)OC1CS(=O)c1ccccc1` (stereo unspecified), where the note is “dose: 150.0 mg/kg/injection, schedule: Q01DX009 (ip), vehicle: saline with Tween-80”, the T/C is 142 % of control.

With `O=C(O)CCNC1=CC(=O)c2ccccc2C1=O`, the survivor count under setting [1] is 6 of 6.

For the compound `O=C(Nc1cccc(C(=O)Nc2ccc(C3=NCCN3)cc2)c1)c1ccc(C2=NCCN2)cc1`, for the setting “dose: 25.0 mg/kg/injection, schedule: Q01DX009 (ip), vehicle: saline”, the T/C is 127 % of control.

With `COc1cccc(CN2CCN(N=O)CC2)c1`, under setting [2], the survivor count is recorded as 2 of 6.

Regarding `N#CCC1CCCC1=O` (stereo unspecified), under setting [4], the survivor count was 5 of 6.

On to `CCC1CN2CCc3cc(OC)c(OC)cc3C2CC1CCCl` (stereo unspecified), for which the survivor count reads like this: under setting [5], 2 of 6; under setting [1], 0 of 6.

Regarding `CC(=O)OCc1c(-c2ccccc2)nc2n1CCS2`, the survivor count reads like this: (dose: 100.0 mg/kg/injection, schedule: Q01DX001 (ip), vehicle: Klucel (hydroxypropylcellulose) (HPC)) 3 of 6; (dose: 200.0 mg/kg/injection, schedule: Q01DX001 (ip), vehicle: Klucel (hydroxypropylcellulose) (HPC)) 0 of 6 and 4 of 6; (dose: 400.0 mg/kg/injection, schedule: Q01DX001 (ip), vehicle: Klucel (hydroxypropylcellulose) (HPC)) 0 of 6 (2×).
